Reference: PubChem BioAssay AID1053208 (Peter MacCallum Cancer Centre, 2014)

Aim: 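Genes whose silencing cuts survival of bone tumour cells only with doxorubicin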 (primary screen)
Cells: mouse osteosarcoma cells, early-passage culture from an engineered mouse model of fibroblastic bone tumour
Knock-down reagent: siRNA pool against mouse genes, 40 nM
Timing: about 120 h (48 h before drug, then 72 h with drug)
Challenge: doxorubicin 100 nM for 72 h, roughly 30-40% inhibitory dose
Measured: 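Viability read as ATP luminescence after 72 h of 100 nM doxorubicin or none, duplicate wells averaged, scaled to non-targeting siRNA, then expressed as robust z-scores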
Scale: viability z-score with doxorubicin and doxorubicin viability vs non-targeting: higher = more viable cells under doxorubicin; viability z-score without drug: higher = more viable cells with knock-down alone; z-score of drug to no-drug ratio: higher = less drug sensitisation by knock-down
Active means: 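a pool counts as active when its viability z-score with doxorubicin is -2 or below and its z-score without drug lies between -2 and 2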
In all, the deposit lists about 17,000 reagents; shown is a random part of them. In the full data, 788 (4.7%) got an active call. 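Calls rest on z-score classes alone; an extra cut-off of viability at most 70% of control was not applied to them.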 A number with no mark means an inactive call. Reagents against one gene are numbered here. Reagent sequences are not shown.

| gene | reagent | combined z-score class | viability z-score with doxorubicin | viability z-score without drug | z-score of drug to no-drug ratio | doxorubicin viability vs non-targeting |
| --- | --- | --- | --- | --- | --- | --- |
| Apba3 (amyloid beta precursor protein binding family A member 3) | 1 | no change with or without drug | 0.9 | 0.84 | 0.45 | 1.02 |
| Gm9725 (predicted gene 9725) | 1 | no change with or without drug | 0.56 | -0.84 | 1.35 | 0.99 |
| Rps14 (ribosomal protein S14) | 1 | low cell count with and without drug | -6.52 | -4.22 | -5.28 | 0.36 |
| 4631423B10Rik (RIKEN cDNA 4631423B10 gene) | 1 | low cell count with doxorubicin only (active) | -2.25 | -1.52 | -1.35 | 0.74 |
| Ca8 (carbonic anhydrase 8) | 1 | no change with or without drug | -0.22 | 1.01 | -0.79 | 0.92 |
| Cdhr4 (cadherin-related family member 4) | 1 | no change with or without drug | -0.67 | 1.52 | -1.46 | 0.88 |
| Tacc1 (transforming, acidic coiled-coil containing protein 1) | 1 | no change with or without drug | 0.9 | 1.18 | 0.22 | 1.02 |
| Or2h2c (olfactory receptor family 2 subfamily H member 2C) | 1 | no change with or without drug | -1.8 | -1.52 | -0.79 | 0.78 |
| Cfp (complement factor properdin) | 1 | high cell count with doxorubicin only | 2.36 | 1.52 | 1.46 | 1.15 |
| Orai2 (ORAI calcium release-activated calcium modulator 2) | 1 | no change with or without drug | 0.11 | 0.51 | -0.11 | 0.95 |
| Or5ak25 (olfactory receptor family 5 subfamily AK member 25) | 1 | no change with or without drug | -0.45 | 1.01 | -1.01 | 0.9 |
| Brip1 (BRCA1 interacting protein C-terminal helicase 1) | 1 | no change with or without drug | 1.8 | 0.34 | 1.69 | 1.1 |
| Pigl (phosphatidylinositol glycan anchor biosynthesis, class L) | 1 | no change with or without drug | 0 | 1.85 | -1.01 | 0.94 |
| Bmpr1a (bone morphogenetic protein receptor, type 1A) | 1 | no change with or without drug | -0.67 | -0.51 | -0.22 | 0.88 |
| Abcc3 (ATP-binding cassette, sub-family C member 3) | 1 | no change with or without drug | -0.67 | 0.34 | -0.79 | 0.88 |
| Cacnb1 (calcium channel, voltage-dependent, beta 1 subunit) | 1 | no change with or without drug | -1.12 | -0.51 | -0.79 | 0.84 |
| Vwa5b2 (von Willebrand factor A domain containing 5B2) | 1 | no change with or without drug | 0 | -0.17 | 0.22 | 0.94 |
| Vwa5b2 (von Willebrand factor A domain containing 5B2) | 2 | no change with or without drug | 0 | 0.17 | 0 | 0.94 |
| Adam4 (a disintegrin and metallopeptidase domain 4) | 1 | no change with or without drug | 0 | 0.17 | 0 | 0.94 |
| Hlx (H2.0-like homeobox) | 1 | no change with or without drug | 0.45 | -0.51 | 1.01 | 0.98 |
| Rnf44 (ring finger protein 44) | 1 | no change with or without drug | 0.56 | -0.17 | 0.79 | 0.99 |
| B830004H01Rik (RIKEN cDNA B830004H01 gene) | 1 | no change with or without drug | 0.79 | 0 | 0.9 | 1.01 |
| Map2k6 (mitogen-activated protein kinase kinase 6) | 1 | no change with or without drug | 0.22 | 0.84 | -0.22 | 0.96 |
| Smpd1 (sphingomyelin phosphodiesterase 1, acid lysosomal) | 1 | no change with or without drug | -0.45 | -1.18 | 0.45 | 0.9 |
| Pde4dip (phosphodiesterase 4D interacting protein (myomegalin)) | 1 | no change with or without drug | 0.45 | 0.34 | 0.34 | 0.98 |
| Pde4dip (phosphodiesterase 4D interacting protein (myomegalin)) | 2 | no change with or without drug | -0.9 | 0.84 | -1.35 | 0.86 |
| Pde4dip (phosphodiesterase 4D interacting protein (myomegalin)) | 3 | no change with or without drug | 0 | 1.52 | -0.9 | 0.94 |
| Immp1l | 1 | no change with or without drug | 0.22 | 0.84 | -0.22 | 0.96 |
| Atg2b (autophagy related 2B) | 1 | no change with or without drug | -0.45 | -0.84 | 0.22 | 0.9 |
| Atg2b (autophagy related 2B) | 2 | no change with or without drug | 1.01 | 0.84 | 0.56 | 1.03 |
| Ripk4 (receptor-interacting serine-threonine kinase 4) | 1 | no change with or without drug | 0.22 | -0.17 | 0.45 | 0.96 |
| Snrnp40 (small nuclear ribonucleoprotein 40 (U5)) | 1 | no change with or without drug | 0.67 | 0.34 | 0.56 | 1 |
| Tagln (transgelin) | 1 | no change with or without drug | -1.91 | -0.84 | -1.35 | 0.77 |
| Prpf3 (pre-mRNA processing factor 3) | 1 | no change with or without drug | -1.12 | -0.84 | -0.56 | 0.84 |
| Cysrt1 (cysteine rich tail 1) | 1 | no change with or without drug | 0.56 | 0.34 | 0.45 | 0.99 |
| Nedd4l | 1 | high cell count with and without drug | 2.36 | 2.02 | 1.01 | 1.15 |
| Vps9d1 (VPS9 domain containing 1) | 1 | no change with or without drug | 1.35 | -0.17 | 1.69 | 1.06 |
| Pip (prolactin induced protein) | 1 | no change with or without drug | 0.22 | 1.52 | -0.67 | 0.96 |
| Sec16b (SEC16 homolog B, endoplasmic reticulum export factor) | 1 | no change with or without drug | 0.9 | 0.67 | 0.56 | 1.02 |
| Rhox4b (reproductive homeobox 4B) | 1 | no change with or without drug | 0 | 1.18 | -0.67 | 0.94 |
| Wdr20 (WD repeat domain 20) | 1 | no change with or without drug | -1.12 | 0.17 | -1.12 | 0.84 |
| Doc2g (double C2, gamma) | 1 | no change with or without drug | 0.22 | 0.51 | 0 | 0.96 |
| Irf7 (interferon regulatory factor 7) | 1 | no change with or without drug | 0.67 | -0.51 | 1.24 | 1 |
| Krtap3-3 (keratin associated protein 3-3) | 1 | no change with or without drug | -0.45 | -1.01 | 0.34 | 0.9 |
| Hectd2 (HECT domain E3 ubiquitin protein ligase 2) | 1 | no change with or without drug | 0.11 | 1.18 | -0.56 | 0.95 |
| Ubl4a (ubiquitin-like 4A) | 1 | no change with or without drug | 1.12 | 1.35 | 0.34 | 1.04 |
| Fscn1 (fascin actin-bundling protein 1) | 1 | no change with or without drug | 0.67 | -0.51 | 1.24 | 1 |
| Nhlrc3 (NHL repeat containing 3) | 1 | no change with or without drug | 0.45 | 1.85 | -0.67 | 0.98 |
| Mrpl23 (mitochondrial ribosomal protein L23) | 1 | no change with or without drug | 0.67 | -0.51 | 1.24 | 1 |
| Mark1 (MAP/microtubule affinity regulating kinase 1) | 1 | no change with or without drug | 1.57 | -0.34 | 2.02 | 1.08 |

Already shown: an excerpt of the list.
| gene | reagent | combined z-score class | viability z-score with doxorubicin | viability z-score without drug | z-score of drug to no-drug ratio | doxorubicin viability vs non-targeting |
| --- | --- | --- | --- | --- | --- | --- |
| Vwa5b2 (von Willebrand factor A domain containing 5B2) | 2 | no change with or without drug | 0 | 0.17 | 0 | 0.94 |
| Adam4 (a disintegrin and metallopeptidase domain 4) | 1 | no change with or without drug | 0 | 0.17 | 0 | 0.94 |
| Hlx (H2.0-like homeobox) | 1 | no change with or without drug | 0.45 | -0.51 | 1.01 | 0.98 |
| Rnf44 (ring finger protein 44) | 1 | no change with or without drug | 0.56 | -0.17 | 0.79 | 0.99 |
| B830004H01Rik (RIKEN cDNA B830004H01 gene) | 1 | no change with or without drug | 0.79 | 0 | 0.9 | 1.01 |
| Map2k6 (mitogen-activated protein kinase kinase 6) | 1 | no change with or without drug | 0.22 | 0.84 | -0.22 | 0.96 |
